PubChem BioAssay AID493246 – Drosophila RNAi Screening Center | 2011
The deposit covers about 21,000 reagents; below is an unselected part of those with a known target gene and a result. In the full data, 429 (2%) got an active call. 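Values are raw and not normalised between plates; calls rest on per-plate z-scores that were not deposited.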 Entries without a mark were called inactive. The numbers tell different reagents against one gene apart. The record does not give: the amount of reagent, the time to read-out.

Purpose: 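Identify essential fly genes by loss of cell viability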 (primary screen)
System: Drosophila Kc and S2R+ cells
Reagent: long dsRNA against Drosophila genes
Measured: 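Raw, unnormalised count of remaining cells in each well; per-plate z-scores of cell number underlie the calls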
Scale: Kc cell number and S2R+ cell number: higher = more cells remaining
Hit rule: 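Active when the per-plate z-score of cell number is 3 or more in the direction of fewer cells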

| Gene | reagent no. | Kc cell number, rep 1 | Kc cell number, rep 2 | S2R+ cell number, rep 1 | S2R+ cell number, rep 2 |
| --- | --- | --- | --- | --- | --- |
| Vha100-2 (GeneID 42216) | 1 | 1.58e6 | 1.65e6 | 1.30e6 | 1.36e6 |
| CG9628 (GeneID 39593) | 1 | 1.67e6 | 1.75e6 | 1.21e6 | 1.31e6 |
| CG7739 (GeneID 39684) | 1 | 1.52e6 | 1.52e6 | 1.21e6 | 1.44e6 |
| MICU3 (GeneID 42357) | 1 | 1.38e6 | 1.42e6 | 1.05e6 | 1.13e6 |
| MICU3 (GeneID 42357) | 2 | 1.57e6 | 1.64e6 | 1.23e6 | 1.23e6 |
| 14-3-3zeta (GeneID 36059) | 1 | 1.38e6 | 1.42e6 | 1.09e6 | 1.09e6 |
| Dpp10 (GeneID 33923) | 1 | 1.64e6 | 1.79e6 | 1.13e6 | 1.28e6 |
| Dpp10 (GeneID 33923) | 2 | 1.41e6 | 1.33e6 | 1.11e6 | 1.22e6 |
| CG5011 (GeneID 50196) | 1 | 1.50e6 | 1.51e6 | 9.63e5 | 1.09e6 |
| CG5011 (GeneID 50196) | 2 | 1.42e6 | 1.48e6 | 1.21e6 | 1.23e6 |
| Acp65Aa (GeneID 38710) | 1 | 1.56e6 | 1.44e6 | 1.19e6 | 1.26e6 |
| PheRS-m (GeneID 36547) | 1 | 1.48e6 | 1.50e6 | 1.20e6 | 1.20e6 |
| CG31686 (retired record) (GeneID 318885) | 1 | 1.68e6 | 1.68e6 | 9.94e5 | 1.14e6 |
| Ahcy (GeneID 32471) | 1 | 4.79e5 | – | 8.28e5 | – |
| CG10918 (GeneID 33123) | 1 | 1.66e6 | 1.64e6 | 1.05e6 | 1.22e6 |
| Upf3 (GeneID 37792) | 1 | 1.35e6 | 1.43e6 | 1.06e6 | 1.11e6 |
| CG17834 (GeneID 34191) | 1 | 1.32e6 | 1.16e6 | 1.06e6 | 1.11e6 |

Just “Kc cell number, rep 2” (7 entries from above):
14-3-3zeta (GeneID 36059) = 1.42e6
Dpp10 (GeneID 33923) #1 = 1.79e6
Dpp10 (GeneID 33923) #2 = 1.33e6
CG5011 (GeneID 50196) #1 = 1.51e6
CG5011 (GeneID 50196) #2 = 1.48e6
Acp65Aa (GeneID 38710) = 1.44e6
PheRS-m (GeneID 36547) = 1.50e6

The list goes on:
| Gene | reagent no. | Kc cell number, rep 1 | Kc cell number, rep 2 | S2R+ cell number, rep 1 | S2R+ cell number, rep 2 |
| --- | --- | --- | --- | --- | --- |
| Pcif1 (GeneID 40295) | 1 | 1.43e6 | 1.50e6 | 1.28e6 | 1.30e6 |
| Obp19b (GeneID 33038) | 1 | 1.60e6 | 1.57e6 | 1.11e6 | 1.19e6 |
| CG5567 (GeneID 39986) | 1 | 1.43e6 | 1.46e6 | 1.29e6 | 1.28e6 |
| Pex12 (GeneID 33256) | 1 | 1.51e6 | 1.58e6 | 8.09e5 | 9.47e5 |
| CG7173 (GeneID 40392) | 1 | 1.36e6 | 1.46e6 | 8.34e5 | 9.09e5 |
| nom (GeneID 41038) | 1 | 1.45e6 | 1.58e6 | 1.27e6 | 1.30e6 |
| CG11975 (GeneID 41074) | 1 | 1.64e6 | 1.80e6 | 1.21e6 | 1.25e6 |
| Taf2 (GeneID 39164) | 1 | 1.36e6 | 1.39e6 | 1.21e6 | 8.91e5 |
| Syx6 (GeneID 40373) | 1 | 1.35e6 | 1.41e6 | 1.14e6 | 1.16e6 |
| CG3368 (GeneID 43292) | 1 | 5.14e5 | – | 8.72e5 | – |
| CG10734 (GeneID 36787) | 1 | 1.45e6 | 1.55e6 | 1.15e6 | 1.25e6 |
| CG2336 (GeneID 40804) | 1 | 1.36e6 | 1.51e6 | 1.27e6 | 1.37e6 |
| CG3358 (GeneID 35604) | 1 | 1.48e6 | 1.52e6 | 1.17e6 | 1.27e6 |
| Lrr47 (GeneID 34449) | 1 | 1.32e6 | 1.21e6 | 1.04e6 | 1.02e6 |
| CG15515 (GeneID 43538) | 1 | 1.49e6 | 1.55e6 | 1.03e6 | 1.15e6 |
| Ggamma1 (GeneID 35881) | 1 | 1.60e6 | 1.60e6 | 1.18e6 | 1.28e6 |
| Cpr64Ac (GeneID 38510) | 1 | 1.66e6 | 1.46e6 | 1.06e6 | 1.38e6 |
| mil (GeneID 43343) | 1 | 1.53e6 | 1.60e6 | 9.78e5 | 1.10e6 |
| Tim8 (GeneID 32081) | 1 | 1.54e6 | 1.54e6 | 1.05e6 | 1.15e6 |
| EMC3 (GeneID 34479) | 1 | 1.45e6 | 1.56e6 | 1.27e6 | 1.39e6 |
| Prx1 (GeneID 39658) | 1 | 1.34e6 | 1.46e6 | 1.33e6 | 1.45e6 |
| Tet (GeneID 38347) | 1 | 1.27e6 | 1.46e6 | 9.21e5 | 1.03e6 |
| siz (GeneID 40327) | 1 | 1.49e6 | 1.70e6 | 1.32e6 | 1.28e6 |
| siz (GeneID 40327) | 2 | 1.50e6 | 2.02e6 | 1.25e6 | 1.32e6 |
| siz (GeneID 40327) | 3 | 1.72e6 | 1.66e6 | 1.48e6 | 1.56e6 |
